{
  "source": "patent US6790646B2",
  "about": "“Mutants of monoamine oxidase B” (Research Development Foundation, priority 1998, dated 2004)",
  "test_system": "MAO B",
  "experiment": "Kinetic analysis of wild-type and mutant MAO B with [14C]PEA substrate (transfected COS-7 cell homogenates)",
  "assay_type": "biochemical, human",
  "settings": "pH 7.5, 37° C., apparent, mean + S.E.M.",
  "experimental": "The wild-type and mutant MAO B enzymes were expressed in mammalian COS-7 cells, and the enzymatic properties of the native enzyme and its mutant enzymes were determined and compared. Wild-type and mutant MAO B cDNAs were transiently transfected into COS-7 cells by electroporation. Cells were harvested during late log phase growth and resuspended to a concentration of 3.125×10^6 cells/ml in DMEM supplemented with 10% fetal bovine serum (FBS). Fifteen μg of normal or mutant cDNA were added to 0.8 ml (2.5×10^6 cells) of cell suspension. Electroporation was carried out in a Bio-Rad Gene Pulser with a setting of 0.25 kV and 500 μF. […]\nAliquots (20 μl) of transfected COS-7 cell homogenates were incubated for 10 min at 37° C. in the presence of various concentrations of [^14C]PEA (20 mCi/mmol) or [^14C]benzylamine (10 mCi/mmol) in 50 mM sodium phosphate buffer, pH 7.5 (200 μl total volume). Substrate concentrations ranged from 0.25-2.5 times the Km value (determined in pilot experiments) to yield 10 equally-spaced reciprocal increments. […] Apparent Km and Vmax values were determined by linear regression analysis of Lineweaver-Burk plots. Kcat values were calculated from the Vmax values divided by the concentration of wild-type or mutant MAO B determined in each experiment. […] Data are given as means +S.E.M. pmol/mg of protein determined using a subunit molecular weight of 58,800.",
  "note": "Some results were stated once for a whole list of compounds, not compound by compound.",
  "data": [
    {"molecule": "T428 A: human MAO B mutant, Thr428 changed to Ala (protein, UniProt P27338 2-520, looked up, variant T428A) Amine oxidase …: SNKCDVVVVGGGISGMAAAKLLHDSGLNVVVLEARDRVGGRTYTLRNQKVKYVDLGGSYVGPTQNRILRLAKELGLETYKVNEVERLIHHVKGKSYPFRGPFPPVWNPITYLDHNNFWRTMDDMGREIPSDAPWKAPLAEEWDNMTMKELLDKLCWTESAKQLATLFVNLCVTAETHEVSALWFLWYVKQCGGTTRIISTTNGGQERKFVGGSGQVSERIMDLLGDRVKLERPVIYIDQTRENVLVETLNHEMYEAKYVISAIPPTLGMKIHFNPPLPMMRNQMITRVPLGSVIKCIVYYKEPFWRKKDYCGTMIIDGEEAPVAYTLDDTKPEGNYAAIMGFILAHKARKLARLTKEERLKKLCELYAKVLGSLEALEPVHYEEKNWCEEQYSGGCYTTYFPPGILTQYGRVLRQPVDRIYFAGTEAATHWSGYMEGAVEAGERAAREILHAMGKIPEDEIWQSEPESVDVPAQPITTTFLERHLPSVPGLLRLIGLTTIFSATALGFLAHKRGLLVRV", "values": [
      {"measurement": "Km", "setting": "n=3, listed as T428A", "result": "> 11", "unit": "µM"}
    ]},
    {"molecule": "T428 S: human MAO B mutant, Thr428 changed to Ser (protein, UniProt P27338 2-520, looked up, variant T428S) Amine oxidase …: SNKCDVVVVGGGISGMAAAKLLHDSGLNVVVLEARDRVGGRTYTLRNQKVKYVDLGGSYVGPTQNRILRLAKELGLETYKVNEVERLIHHVKGKSYPFRGPFPPVWNPITYLDHNNFWRTMDDMGREIPSDAPWKAPLAEEWDNMTMKELLDKLCWTESAKQLATLFVNLCVTAETHEVSALWFLWYVKQCGGTTRIISTTNGGQERKFVGGSGQVSERIMDLLGDRVKLERPVIYIDQTRENVLVETLNHEMYEAKYVISAIPPTLGMKIHFNPPLPMMRNQMITRVPLGSVIKCIVYYKEPFWRKKDYCGTMIIDGEEAPVAYTLDDTKPEGNYAAIMGFILAHKARKLARLTKEERLKKLCELYAKVLGSLEALEPVHYEEKNWCEEQYSGGCYTTYFPPGILTQYGRVLRQPVDRIYFAGTESATHWSGYMEGAVEAGERAAREILHAMGKIPEDEIWQSEPESVDVPAQPITTTFLERHLPSVPGLLRLIGLTTIFSATALGFLAHKRGLLVRV", "values": [
      {"measurement": "Km", "setting": "n=3, listed as T428S", "result": "> 11", "unit": "µM"}
    ]}
  ]
}
